The record followed here is publication PMC7450955.

No constants are given. Whether binding was seen depends on the method and setting. In cells and extracts the contact can be indirect. Tags and fused reporters may be left off the sequences shown.

The assay concerns the target T1, APOL1-A-FLAG (human) (UniProt O14791).
T1 sequence: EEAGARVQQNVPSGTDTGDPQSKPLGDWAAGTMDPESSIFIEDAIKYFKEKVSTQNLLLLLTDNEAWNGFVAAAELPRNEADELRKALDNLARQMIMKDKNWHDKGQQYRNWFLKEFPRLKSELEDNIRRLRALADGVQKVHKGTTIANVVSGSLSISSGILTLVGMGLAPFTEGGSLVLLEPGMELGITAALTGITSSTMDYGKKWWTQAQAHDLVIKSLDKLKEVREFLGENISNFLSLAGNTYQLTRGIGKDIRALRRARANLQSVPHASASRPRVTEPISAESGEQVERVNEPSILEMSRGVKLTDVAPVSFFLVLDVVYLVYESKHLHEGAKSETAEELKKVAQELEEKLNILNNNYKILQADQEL
The assay can be described thus: co-IP; NLRP12 and FLAG-tagged APOL1 constructs cotransfected into HeLa cells; APOL1 immunoprecipitated with anti-FLAG antibodies; western analysis for NLRP12.

B1: NLRP12 (transfected) (protein, UniProt P59046 1-1061)
chain: MLRTAGRDGLCRLSTYLEELEAVELKKFKLYLGTATELGEGKIPWGSMEKAGPLEMAQLLITHFGPEEAWRLALSTFERINRKDLWERGQREDLVRDTPPGGPSSLGNQSTCLLEVSLVTPRKDPQETYRDYVRRKFRLMEDRNARLGECVNLSHRYTRLLLVKEHSNPMQVQQQLLDTGRGHARTVGHQASPIKIETLFEPDEERPEPPRTVVMQGAAGIGKSMLAHKVMLDWADGKLFQGRFDYLFYINCREMNQSATECSMQDLIFSCWPEPSAPLQELIRVPERLLFIIDGFDELKPSFHDPQGPWCLCWEEKRPTELLLNSLIRKKLLPELSLLITTRPTALEKLHRLLEHPRHVEILGFSEAERKEYFYKYFHNAEQAGQVFNYVRDNEPLFTMCFVPLVCWVVCTCLQQQLEGGGLLRQTSRTTTAVYMLYLLSLMQPKPGAPRLQPPPNQRGLCSLAADGLWNQKILFEEQDLRKHGLDGEDVSAFLNMNIFQKDINCERYYSFIHLSFQEFFAAMYYILDEGEGGAGPDQDVTRLLTEYAFSERSFLALTSRFLFGLLNEETRSHLEKSLCWKVSPHIKMDLLQWIQSKAQSDGSTLQQGSLEFFSCLYEIQEEEFIQQALSHFQVIVVSNIASKMEHMVSSFCLKRCRSAQVLHLYGATYSADGEDRARCSAGAHTLLVQLPERTVLLDAYSEHLAAALCTNPNLIELSLYRNALGSRGVKLLCQGLRHPNCKLQNLRLKRCRISSSACEDLSAALIANKNLTRMDLSGNGVGFPGMMLLCEGLRHPQCRLQMIQLRKCQLESGACQEMASVLGTNPHLVELDLTGNALEDLGLRLLCQGLRHPVCRLRTLWLKICRLTAAACDELASTLSVNQSLRELDLSLNELGDLGVLLLCEGLRHPTCKLQTLRLGICRLGSAACEGLSVVLQANHNLRELDLSFNDLGDWGLWLLAEGLQHPACRLQKLWLDSCGLTAKACENLYFTLGINQTLTDLYLTNNALGDTGVRLLCKRLSHPGCKLRVLWLFGMDLNKMTHSRLAALRVTKPYLDIGC
On to B1, for which the binding result was “no binding”.
